Source: PubChem BioAssay AID2685 (National Center for Advancing Translational Sciences (NCATS), 2010)
The list shows a part of the results. Shown are side measurements of this screen, not its main read-out; they come without a call. Compounds called inactive in the main read-out are mostly missing here. Potencies come from curve fits of mixed quality, noted in brackets.

Assay: qHTS Assay for Lipid Storage Modulators in Drosophila S3 Cells;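 on cell number change: cells counted by Cell Tracker Red CMTPX staining in the red channel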
Settings: BODIPY lipid droplet fluorescence, 18-24 h; for cell number change: measured here: cell count max response, cells fed with added oleic acid
In short: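 Drosophila S3 cells got compounds at several concentrations plus oleic acid (400 uM solution). Laser-scanning cytometry with 488 nm excitation read lipid droplets at 500-530 nm and cells at 575-640 nm. Percent activity was relative to 20 uM Triacsin C.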

[1] = measured here: cell number channel AC50, cells fed with added oleic acid
[2] = measured here: lipid fluorescence (Fed channel) AC50, cells fed with added oleic acid

| Compound | cell number change | AC50 [1] | AC50 [2] |
| --- | --- | --- | --- |
| O=C(NCCc1cccc(F)c1)C1CCN(S(=O)(=O)c2ccccc2)CC1 | 47.2% | 29.1 µM [rising, single point] | – |
| COc1ccccc1N1CCN(C(=O)CSc2nc3ccccc3nc2N2CCCCC2)CC1 | -12.7% | – | 32.6 µM [falling, single point] |
| O=c1c2ccccc2cnn1Cc1n[nH]c(=S)n1-c1ccc(Cl)cc1 | -18.8% | 3.26 µM [falling, single point] | – |
| Cn1c(NC(=O)/C=C/c2ccc(Cl)c(Cl)c2)cc(=O)n(C)c1=O | 118% | 0.651 µM [rising, full curve] | 14.6 µM [rising, partial curve, poor fit] |
| COc1cc(C(=O)Nc2cccnc2)cc(OC)c1OC | 15% | – | 29.1 µM [rising, single point] |
| NS(=O)(=O)c1ccc(CCNC(=O)CCC(=O)c2cccs2)cc1 | -1.24% | – | 6.51 µM [rising, partial curve, poor fit] |
| CCN(Cc1ccccc1)S(=O)(=O)c1ccc(C(=O)N(CCCN(C)C)c2nc3c(F)cccc3s2)cc1 | 10.3% | 0.00411 µM [rising, full curve, poor fit] | – |
| COc1ccc(CN=CC2=C(O)CC(C)(C)CC2=O)cc1 | -60.8% | 29.1 µM [falling, single point] | – |
| CC(=O)N1c2ccc(S(=O)(=O)NCCc3ccc(Cl)cc3)cc2CC1C (configuration not stated) | – | – | 20.6 µM [falling, partial curve] |
| COc1ccc(NC(C#N)c2ccc(OC)cc2)cc1 (configuration not stated) | 6.01% | – | 29.1 µM [rising, single point] |
| O=[N+]([O-])c1ccccc1Nc1ccc(O)cc1 | -30.8% | 23.1 µM [falling, single point] | 25.9 µM [falling, single point] |
| O=C(c1ccco1)N1CCN(C2CC(=O)N(c3ccc4c(c3)OCO4)C2=O)CC1 (configuration not stated) | – | – | 1.64 µM [falling, partial curve] |
| CS(=O)(=O)NCc1ccc(C(=O)O)cc1 | -12.2% | – | 0.058 µM [falling, full curve, poor fit] |
| Cc1ccc2cc(C#N)c(N3CCCN(C(=O)C4CCCO4)CC3)nc2c1C (configuration not stated) | 15.7% | – | 1.84 µM [falling, partial curve, poor fit] |
| Cc1ccc(C(=O)CSc2nc3ccc(C(=O)NCCN4CCCCC4)cc3c(=O)[nH]2)cc1 | 14.3% | – | 29.1 µM [rising, single point] |
| CCOC(=O)CSc1nnc(CCc2nc3ccccc3[nH]2)n1C | -12.4% | – | – |
| CC(C(=O)c1ccc(-c2ccccc2)cc1)[n+]1cccc(Br)c1 (configuration not stated) | -3.55% | – | – |
| CCOC(=O)c1cccc(-n2c(C)nc3ccccc3c2=O)c1 | -29.8% | – | 16.4 µM [falling, single point] |
| Cc1ccc2cccc(Oc3ccc([N+](=O)[O-])cc3[N+](=O)[O-])c2n1 | -46.5% | 6.51 µM [falling, partial curve, poor fit] | 18.4 µM [falling, partial curve] |
| O=C(CSc1ccc2ccccc2n1)Nc1ccc(N2CCOCC2)cc1 | – | – | 0.13 µM [falling, full curve, poor fit] |

| Compound | cell number change | AC50 [1] | AC50 [2] |
| --- | --- | --- | --- |
| O=C(O)C1CCCN(C(=O)c2cccc3ccccc23)C1 (configuration not stated) | 27.5% | – | – |
| CCOc1ccc(N2CC(C(=O)N/N=C/c3sccc3C)CC2=O)cc1 (configuration not stated) | 0.599% | – | 13 µM [rising, partial curve] |
| CC(C)N(C(=O)Cc1ccccc1[N+](=O)[O-])C(C)C | 6.6% | – | 29.1 µM [falling, single point] |
| CSc1nnc(-c2cccc(C)c2)n1N | 32.4% | 10.3 µM [rising, partial curve, poor fit] | – |
| CCCCN(C)C1CCN(C(=S)Nc2ccc(OC)cc2)CC1 | – | – | 4.11 µM [falling, single point] |
| COc1cc(-c2nnc(-c3ccc(S(=O)(=O)c4ccccc4)cc3)o2)cc(OC)c1OC | 67.6% | 5.8 µM [rising, partial curve] | 6.51 µM [rising, full curve, poor fit] |
| CN1CCCCc2c1nc1c(c2N)CCCC1 | 3.96% | – | 0.0184 µM [falling, full curve, poor fit] |
| CC(=O)N(C)C1(c2nnnn2CCOC(=O)Nc2ccc(Cl)cc2)CCCCC1 | 79.9% | 16.4 µM [rising, single point] | 6.51 µM [rising, single point] |
| CC1=C(C(=O)OC2CCCCC2)C(c2ccccc2Br)NC(=O)N1 (configuration not stated) | -19.4% | – | 10.3 µM [falling, single point] |
| Cn1c(=O)oc2cc(S(=O)(=O)NCCC(=O)NCCc3ccc(Cl)cc3)ccc21 | 259% | 20.6 µM [rising, single point] | 20.6 µM [rising, partial curve] |
| Cc1cc(NCCCN2CCOCC2)n2ncc(-c3ccc(Cl)cc3)c2n1 | 1.1% | – | – |
| CCC(=O)c1c(NCCc2ccccc2)cc(C)oc1=O | -20.1% | 0.00517 µM [falling, full curve, poor fit] | 1.46 µM [falling, partial curve] |
| Cc1cc(C)n(-c2nnc(NC34CC5CC(CC(C5)C3)C4)nn2)n1 | -84.6% | 20.6 µM [falling, partial curve] | 4.61 µM [falling, full curve] |
| CCN(CC(=O)Nc1ccccc1C(F)(F)F)C(=O)C1=COCCO1 | -33.3% | 0.731 µM [falling, full curve, poor fit] | – |
| COC(=O)c1cn(C(C)C(=O)NCc2ccco2)c2ccccc12 (configuration not stated) | 11.9% | – | – |
| CCOC(=O)c1cc(-c2ccc(OC)cc2)nc2c1c(C)nn2CCC#N | -0.402% | 1.3 µM [rising, full curve, poor fit] | – |
| COc1ccc(-c2nnc3n(CCc4ccccc4)c(=O)c4ccccc4n23)cc1OC | 34.4% | 29.1 µM [rising, single point] | 29.1 µM [rising, single point] |
| CC(C)OC(=O)CSc1nnc(-c2cccnc2)n1Cc1ccccc1 | 110% | 3.26 µM [rising, full curve] | 4.61 µM [rising, partial curve] |
| C/C(=N\NC(=O)c1nn(C)cc1Br)c1cccc(NC(=O)C(C)(C)C)c1 | -13.2% | – | – |
| O=C(C/C=N/OCc1c(Cl)cccc1Cl)c1ccccc1 | 17.7% | 3.26 µM [rising, single point] | – |

A different layout for some results above.
Compound | cell number change | AC50 [1] | AC50 [2]
CCOc1ccc(N2CC(C(=O)N/N=C/c3sccc3C)CC2=O)cc1 (configuration not stated) | 0.599% | – | 13 µM [rising, partial curve]
CC(C)N(C(=O)Cc1ccccc1[N+](=O)[O-])C(C)C | 6.6% | – | 29.1 µM [falling, single point]
CSc1nnc(-c2cccc(C)c2)n1N | 32.4% | 10.3 µM [rising, partial curve, poor fit] | –
CCCCN(C)C1CCN(C(=S)Nc2ccc(OC)cc2)CC1 | – | – | 4.11 µM [falling, single point]
CN1CCCCc2c1nc1c(c2N)CCCC1 | 3.96% | – | 0.0184 µM [falling, full curve, poor fit]
CC(=O)N(C)C1(c2nnnn2CCOC(=O)Nc2ccc(Cl)cc2)CCCCC1 | 79.9% | 16.4 µM [rising, single point] | 6.51 µM [rising, single point]
CC1=C(C(=O)OC2CCCCC2)C(c2ccccc2Br)NC(=O)N1 (configuration not stated) | -19.4% | – | 10.3 µM [falling, single point]
Cn1c(=O)oc2cc(S(=O)(=O)NCCC(=O)NCCc3ccc(Cl)cc3)ccc21 | 259% | 20.6 µM [rising, single point] | 20.6 µM [rising, partial curve]
CCC(=O)c1c(NCCc2ccccc2)cc(C)oc1=O | -20.1% | 0.00517 µM [falling, full curve, poor fit] | 1.46 µM [falling, partial curve]
Cc1cc(C)n(-c2nnc(NC34CC5CC(CC(C5)C3)C4)nn2)n1 | -84.6% | 20.6 µM [falling, partial curve] | 4.61 µM [falling, full curve]
CCN(CC(=O)Nc1ccccc1C(F)(F)F)C(=O)C1=COCCO1 | -33.3% | 0.731 µM [falling, full curve, poor fit] | –
COc1ccc(-c2nnc3n(CCc4ccccc4)c(=O)c4ccccc4n23)cc1OC | 34.4% | 29.1 µM [rising, single point] | 29.1 µM [rising, single point]
CC(C)OC(=O)CSc1nnc(-c2cccnc2)n1Cc1ccccc1 | 110% | 3.26 µM [rising, full curve] | 4.61 µM [rising, partial curve]

(further entries)

| Compound | cell number change | AC50 [1] | AC50 [2] |
| --- | --- | --- | --- |
| CNC(=S)N1CCN(c2nc(-c3ccc(Cl)cc3)cs2)CC1 | -0.777% | – | 1.3 µM [falling, full curve] |
| CCOc1ccc(CN(C)C(=O)CNC(=O)c2ccc3ccccc3c2)cc1OC | -2.02% | – | 0.58 µM [rising, single point] |
| Cc1noc(C)c1COC(=O)C1CCN(S(=O)(=O)c2ccc(F)cc2)CC1 | 9.68% | – | 6.51 µM [rising, single point] |
| Clc1ccc(OCCCc2nc(-c3ccncc3)no2)c(Cl)c1 | -17.7% | – | – |
| COc1ccc2c(c1)OC[C@H]1[C@H]2N2C(=O)CN(C)C(=O)[C@@]2(C)[C@H]1c1ccccc1 | -9.83% | – | 0.00461 µM [rising, full curve, poor fit] |
| Cc1nnc(SCC(=O)NC2CCCCC2)s1 | -19.3% | 3.26 µM [falling, full curve, poor fit] | 29.1 µM [falling, single point] |
| Cn1c(=S)c2[nH]c(SCCN3CCCC3)nc2n(C)c1=O | 24.6% | – | – |
| O=C(Nc1ccc(Cl)cc1)/C(=C/c1cccc(O)c1)c1nc2ccccc2s1 | -28.6% | – | 4.11 µM [falling, partial curve, poor fit] |
| COc1cccc(OC)c1C(=O)NC(=O)Oc1c(F)cccc1F | 23.5% | – | 29.1 µM [rising, single point] |
| Cc1ccc(NC(=O)C(c2ccc(Cl)cc2)N2CCOCC2)cc1 (configuration not stated) | 6.5% | 0.651 µM [falling, single point] | 0.651 µM [falling, single point] |
| CS(=O)(=O)N(CC(=O)N1CCN(Cc2ccccc2)CC1)c1ccc(F)cc1 | 16% | – | 0.411 µM [rising, partial curve, poor fit] |
| CC(=O)N(C)c1ccc(NC(=O)Nc2ccccc2C)cc1 | 4.52% | – | 6.51 µM [rising, partial curve, poor fit] |
| CCn1c(SCC(=O)Nc2ccc(F)cc2F)nc2c(c1=O)SCC2 | 25.5% | 0.00651 µM [rising, full curve, poor fit] | 29.1 µM [rising, single point] |
| CC(=O)Oc1ccc(N2C(=O)c3cccc4c([N+](=O)[O-])ccc(c34)C2=O)cc1 | -12.6% | – | 13 µM [falling, partial curve, poor fit] |
| CCc1c(O)nc(SCC(=O)Nc2nc3ccccc3s2)n(-c2ccc(C)cc2)c1=O | -1.69% | – | 6.51 µM [falling, single point] |
| O=C(Cn1c2ccccc2c(=O)c2ccccc21)N/N=C/c1ccc(N2CCCC2)c([N+](=O)[O-])c1 | -25.7% | – | 29.1 µM [falling, single point] |
| COc1ccc(CCNC(=O)CNCC2CCCO2)cc1OC (configuration not stated) | 47.6% | 14.6 µM [rising, partial curve] | – |
| O=C1c2ccccc2C(=O)N1CCC(c1ccccc1)c1ccco1 (configuration not stated) | 55.2% | 29.1 µM [rising, single point] | – |
